# Source: article PMC9925821
# By UniProt entry, the sequences of proteins in these tests, tags left out. Where a name states a change or a piece, a line headed by the entry shows the natural chain unless it says otherwise.
# UniProt Q8TCG2: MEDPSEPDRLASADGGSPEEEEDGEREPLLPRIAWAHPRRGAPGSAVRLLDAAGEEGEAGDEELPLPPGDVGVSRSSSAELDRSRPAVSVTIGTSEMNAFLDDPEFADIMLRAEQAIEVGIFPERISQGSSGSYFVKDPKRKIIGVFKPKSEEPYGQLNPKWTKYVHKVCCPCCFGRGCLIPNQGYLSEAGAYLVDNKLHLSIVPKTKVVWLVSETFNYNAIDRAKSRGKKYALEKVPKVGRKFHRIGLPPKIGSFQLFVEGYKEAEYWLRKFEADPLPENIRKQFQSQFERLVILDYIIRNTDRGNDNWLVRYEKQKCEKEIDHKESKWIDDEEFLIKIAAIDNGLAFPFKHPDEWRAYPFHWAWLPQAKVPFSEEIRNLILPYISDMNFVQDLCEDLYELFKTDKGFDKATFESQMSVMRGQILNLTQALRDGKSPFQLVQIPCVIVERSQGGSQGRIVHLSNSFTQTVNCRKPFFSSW
# UniProt Q96KN1: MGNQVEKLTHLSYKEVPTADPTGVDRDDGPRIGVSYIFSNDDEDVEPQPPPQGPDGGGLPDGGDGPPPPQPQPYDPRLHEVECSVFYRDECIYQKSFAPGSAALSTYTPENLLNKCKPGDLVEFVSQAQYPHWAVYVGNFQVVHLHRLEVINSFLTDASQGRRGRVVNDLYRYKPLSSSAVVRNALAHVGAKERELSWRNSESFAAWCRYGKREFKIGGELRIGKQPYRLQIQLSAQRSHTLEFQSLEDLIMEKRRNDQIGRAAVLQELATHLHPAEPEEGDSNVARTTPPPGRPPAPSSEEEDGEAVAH
# UniProt P62491: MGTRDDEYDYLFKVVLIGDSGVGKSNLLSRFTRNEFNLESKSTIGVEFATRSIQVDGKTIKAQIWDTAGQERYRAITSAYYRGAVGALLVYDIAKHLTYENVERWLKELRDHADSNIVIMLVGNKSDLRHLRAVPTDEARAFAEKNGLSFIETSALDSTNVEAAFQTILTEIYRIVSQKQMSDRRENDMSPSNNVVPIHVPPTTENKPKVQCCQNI
# Biological target: T1, Flag-FKBP51 (True-ORF-Myc-DDK (Flag)-tagged human FKBP51-transcript variant 1) (human) (UniProt Q13451)
# T1 sequence: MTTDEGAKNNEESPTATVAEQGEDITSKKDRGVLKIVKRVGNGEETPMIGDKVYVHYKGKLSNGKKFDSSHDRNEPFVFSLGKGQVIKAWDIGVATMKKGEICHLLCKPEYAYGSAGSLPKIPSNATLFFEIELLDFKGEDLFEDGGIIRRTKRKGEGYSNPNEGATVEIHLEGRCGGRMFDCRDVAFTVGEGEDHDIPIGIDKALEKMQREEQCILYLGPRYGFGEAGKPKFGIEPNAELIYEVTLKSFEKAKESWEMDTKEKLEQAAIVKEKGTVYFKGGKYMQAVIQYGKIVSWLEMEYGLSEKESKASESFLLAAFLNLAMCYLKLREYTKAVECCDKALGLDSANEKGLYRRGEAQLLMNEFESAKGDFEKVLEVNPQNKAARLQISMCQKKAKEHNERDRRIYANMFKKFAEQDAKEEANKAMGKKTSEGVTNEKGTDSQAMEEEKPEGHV
# Assay: affinity purification with mass spectrometry; Flag-FKBP51 immunopurified from transfected A375 cells (with or without PHLPP over-representation) on anti-DYKDDDDK magnetic agarose, SDS-PAGE, in-gel trypsin digestion, nanoLC-ESI-Q-Orbitrap-MS/MS; empty vector as control
row,binding,Substance
1,binds,PI4K2B (from UniProt Q8TCG2 1-481)
2,binds,NSE2 (from UniProt Q96KN1)
3,binds,Rab11a (from UniProt P62491 1-216)

# No constants are given. Whether binding was seen depends on the method and setting. In cells and extracts the contact can be indirect. A yes stands for co-enrichment or nearness to the bait. Other partners may have been found. Sequences can lack the tags named with a protein.
